Experimental data from the supplement of paper PMC8728848.
Some of the results follow.

Tests used:
Assay in all cases: glycan array binding signal (z-score within array); higher = stronger binding
Settings in all cases: glycan notation: IUPAC condensed, linker removed
[1] = molecular target: Man(a1-2)Man(a1-3)[Man(a1-2)Man(a1-6)]Man(a1-6)[Man(a1-2)Man(a1-2)Man(a1-3)]Man
Method in brief: (§1)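 Arrays were curated from the Consortium for Functional Glycomics database, 3228 in total, and kept only where the protein sequence was available. Binding is expressed as a within-array Z-score. This score was averaged across arrays of the same protein sequence at different concentrations or buffers and across linkers, and negative values can be read as non-binding.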

[2] = molecular target: Man(a1-2)Man(a1-3)[Man(a1-2)Man(a1-6)]Man(a1-6)[Man(a1-2)Man(a1-2)Man(a1-3)]Man(b1-4)GlcNAc(b1-4)GlcNAc
Method in brief: as §1

[3] = molecular target: Man(a1-2)Man(a1-3)[Man(a1-6)]Man(a1-6)[Man(a1-2)Man(a1-3)]Man(b1-4)GlcNAc(b1-4)GlcNAc
Method in brief: as §1

[4] = molecular target: Man(a1-2)Man(a1-6)[Man(a1-3)]Man(a1-6)[Man(a1-2)Man(a1-2)Man(a1-3)]Man
Method in brief: as §1

[5] = molecular target: Man(a1-2)Man(a1-6)[Man(a1-3)]Man(a1-6)[Man(a1-2)Man(a1-2)Man(a1-3)]Man(b1-4)GlcNAc(b1-4)GlcNAc
Method in brief: as §1

Man(a1-3)[Man(a1-6)]Man = molecular target: Man(a1-3)[Man(a1-6)]Man
Method in brief: as §1

[6] = molecular target: Man(a1-3)[Man(a1-6)]Man(a1-6)[Man(a1-2)Man(a1-3)]Man(b1-4)GlcNAc(b1-4)GlcNAc
Method in brief: as §1

[7] = molecular target: Man(a1-3)[Man(a1-6)]Man(a1-6)[Man(a1-3)]Man
Method in brief: as §1

[8] = molecular target: Man(a1-3)[Man(a1-6)]Man(a1-6)[Man(a1-3)]Man(b1-4)GlcNAc(b1-4)GlcNAc
Method in brief: as §1

[9] = molecular target: Man(a1-3)[Man(a1-6)]Man(b1-4)GlcNAc(b1-4)GlcNAc
Method in brief: as §1

[10] = molecular target: Man(a1-3)[Man(a1-6)]Man(b1-4)GlcNAc(b1-4)[Fuc(a1-6)]GlcNAc
Method in brief: as §1

Man(a1-6)Man = molecular target: Man(a1-6)Man
Method in brief: as §1

Man(b1-4)GlcNAc = molecular target: Man(b1-4)GlcNAc
Method in brief: as §1

MurNAc(b1-4)GlcNAc = molecular target: MurNAc(b1-4)GlcNAc
Method in brief: as §1

Neu5Ac(a2-3)Gal = molecular target: Neu5Ac(a2-3)Gal
Method in brief: as §1

[11] = molecular target: Neu5Ac(a2-3)Gal(b1-3)GalNAc
Method in brief: as §1

[12] = molecular target: Neu5Ac(a2-3)Gal(b1-3)GalNAc(b1-3)Gal(a1-4)Gal(b1-4)Glc
Method in brief: as §1

[13] = molecular target: Neu5Ac(a2-3)Gal(b1-3)GalNAc(b1-4)[Neu5Ac(a2-3)]Gal(b1-4)Glc
Method in brief: as §1

[14] = molecular target: Neu5Ac(a2-3)Gal(b1-3)GalNAc(b1-4)[Neu5Ac(a2-8)Neu5Ac(a2-3)]Gal(b1-4)Glc
Method in brief: as §1

[15] = molecular target: Neu5Ac(a2-3)Gal(b1-3)GalNAc6S
Method in brief: as §1

[16] = molecular target: Neu5Ac(a2-3)Gal(b1-3)GlcNAc
Method in brief: as §1

[17] = molecular target: Neu5Ac(a2-3)Gal(b1-3)GlcNAc(b1-2)Man
Method in brief: as §1

[18] = molecular target: Neu5Ac(a2-3)Gal(b1-3)GlcNAc(b1-2)Man(a1-3)[GlcNAc(b1-4)][Neu5Ac(a2-3)Gal(b1-3)GlcNAc(b1-2)Man(a1-6)]Man(b1-4)GlcNAc(b1-4)GlcNAc
Method in brief: as §1

[19] = molecular target: Neu5Ac(a2-3)Gal(b1-3)GlcNAc(b1-2)Man(a1-3)[Neu5Ac(a2-3)Gal(b1-3)GlcNAc(b1-2)Man(a1-6)]Man(b1-4)GlcNAc(b1-4)GlcNAc
Method in brief: as §1

[20] = molecular target: Neu5Ac(a2-3)Gal(b1-3)GlcNAc(b1-2)[Neu5Ac(a2-3)Gal(b1-3)GlcNAc(b1-4)]Man(a1-6)[Neu5Ac(a2-3)Gal(b1-3)GlcNAc(b1-2)Man(a1-3)]Man(b1-4)GlcNAc(b1-4)GlcNAc
Method in brief: as §1

[21] = molecular target: Neu5Ac(a2-3)Gal(b1-3)GlcNAc(b1-3)Gal(b1-3)GlcNAc
Method in brief: as §1

[22] = molecular target: Neu5Ac(a2-3)Gal(b1-3)GlcNAc(b1-3)Gal(b1-4)GlcNAc
Method in brief: as §1

[23] = molecular target: Neu5Ac(a2-3)Gal(b1-3)GlcNAc(b1-3)GalNAc
Method in brief: as §1

[24] = molecular target: Neu5Ac(a2-3)Gal(b1-3)GlcNAc(b1-4)Gal(b1-4)Glc
Method in brief: as §1

[25] = molecular target: Neu5Ac(a2-3)Gal(b1-3)GlcNAc(b1-6)GalNAc
Method in brief: as §1

[26] = molecular target: Neu5Ac(a2-3)Gal(b1-3)GlcNAc6S
Method in brief: as §1

[27] = molecular target: Neu5Ac(a2-3)Gal(b1-3)[Fuc(a1-4)]GlcNAc
Method in brief: as §1

[28] = molecular target: Neu5Ac(a2-3)Gal(b1-3)[Fuc(a1-4)]GlcNAc(b1-3)Gal(b1-3)[Fuc(a1-4)]GlcNAc
Method in brief: as §1

[29] = molecular target: Neu5Ac(a2-3)Gal(b1-3)[Fuc(a1-4)]GlcNAc(b1-3)Gal(b1-4)[Fuc(a1-3)]GlcNAc
Method in brief: as §1

[30] = molecular target: Neu5Ac(a2-3)Gal(b1-3)[GlcNAc(b1-6)]GalNAc
Method in brief: as §1

[31] = molecular target: Neu5Ac(a2-3)Gal(b1-3)[Neu5Ac(a2-6)]GalNAc
Method in brief: as §1

[32] = molecular target: Neu5Ac(a2-3)Gal(b1-3)[Neu5Ac(a2-6)]GlcNAc(b1-3)[Fuc(a1-3)[Gal(b1-4)]GlcNAc(b1-6)]Gal(b1-4)Glc
Method in brief: as §1

[33] = molecular target: Neu5Ac(a2-3)Gal(b1-3)]Neu5Ac(a2-3)Gal(b1-4)]GlcNAc
Method in brief: as §1

Neu5Ac(a2-3)Gal(b1-4)Glc = molecular target: Neu5Ac(a2-3)Gal(b1-4)Glc
Method in brief: as §1

[34] = molecular target: Neu5Ac(a2-3)Gal(b1-4)GlcNAc
Method in brief: as §1

[35] = molecular target: Neu5Ac(a2-3)Gal(b1-4)GlcNAc(b1-2)Man
Method in brief: as §1

[36] = molecular target: Neu5Ac(a2-3)Gal(b1-4)GlcNAc(b1-2)Man(a1-3)[GlcNAc(b1-4)][Neu5Ac(a2-3)Gal(b1-4)GlcNAc(b1-2)Man(a1-6)]Man(b1-4)GlcNAc(b1-4)GlcNAc
Method in brief: as §1

[37] = molecular target: Neu5Ac(a2-3)Gal(b1-4)GlcNAc(b1-2)Man(a1-3)[Neu5Ac(a2-3)Gal(b1-4)GlcNAc(b1-2)Man(a1-6)]Man(b1-4)GlcNAc(b1-4)GlcNAc
Method in brief: as §1

[38] = molecular target: Neu5Ac(a2-3)Gal(b1-4)GlcNAc(b1-2)Man(a1-3)[Neu5Ac(a2-3)Gal(b1-4)GlcNAc(b1-2)Man(a1-6)]Man(b1-4)GlcNAc(b1-4)[Fuc(a1-6)]GlcNAc
Method in brief: as §1

[39] = molecular target: Neu5Ac(a2-3)Gal(b1-4)GlcNAc(b1-2)Man(a1-3)[Neu5Ac(a2-6)Gal(b1-4)GlcNAc(b1-2)Man(a1-6)]Man(b1-4)GlcNAc(b1-4)GlcNAc
Method in brief: as §1

B1: ArathEULS3 TAP (Arabidopsis thaliana) (protein)
chain: IDENLYFQGGSMDEKTTGWRGGHVVEGLAGELEQLRARLEHHPQGQREPGGGGSLEITSLYKKAGFMEHHHQHHRHHQRDDGEDDRQSFGVPPPHVDAPPQPHGLYQSQPHFDPYAPTPQAPAPYRSETQFEPHAPPPYRSEPYFETPAPPPSFGHVSHVGHQSPNESYPPEHHRYGGYQQPSNSLLESHGDHSGVTHVAHHSSNQPQSSSGVYHKPDENRLPDNLAGLAGRATVKVYSKAEPNYNLTIRDGKVILAPADPSDEAQHWYKDEKYSTKVKDADGHPCFALVNKATGEAMKHSVGATHPVHLIRYVPDKLDESVLWTESKDFGDGYRTIRMVNNTRLNVDAYHGDSKSGGVRDGTTIVLWDWNKGDNQLWKIFPF
- glycan array binding signal (z-score) [1]: -0.658
- glycan array binding signal (z-score) [2]: -0.311
- glycan array binding signal (z-score) [3]: 0.764
- glycan array binding signal (z-score) [4]: -1.41
- glycan array binding signal (z-score) [5]: -1.48
- glycan array binding signal (z-score) (Man(a1-3)[Man(a1-6)]Man): 0.692
- glycan array binding signal (z-score) [6]: 0.556
- glycan array binding signal (z-score) [7]: 1.16
- glycan array binding signal (z-score) [8]: 3.03
- glycan array binding signal (z-score) [9]: -0.083
- glycan array binding signal (z-score) [10]: -0.665
- glycan array binding signal (z-score) (Man(a1-6)Man): -1.26
- glycan array binding signal (z-score) (Man(b1-4)GlcNAc): -0.658
- glycan array binding signal (z-score) (MurNAc(b1-4)GlcNAc): 0.198
- glycan array binding signal (z-score) (Neu5Ac(a2-3)Gal): -1.33
- glycan array binding signal (z-score) [11]: -0.618
- glycan array binding signal (z-score) [12]: 1.23
- glycan array binding signal (z-score) [13]: -0.343
- glycan array binding signal (z-score) [14]: -0.79
- glycan array binding signal (z-score) [15]: -1.43
- glycan array binding signal (z-score) [16]: 0.275
- glycan array binding signal (z-score) [17]: -1.3
- glycan array binding signal (z-score) [18]: -1.32
- glycan array binding signal (z-score) [19]: -1.49
- glycan array binding signal (z-score) [20]: 1.77
- glycan array binding signal (z-score) [21]: 1.15
- glycan array binding signal (z-score) [22]: -0.43
- glycan array binding signal (z-score) [23]: 1.62
- glycan array binding signal (z-score) [24]: -1.16
- glycan array binding signal (z-score) [25]: 1.63
- glycan array binding signal (z-score) [26]: 0.337
- glycan array binding signal (z-score) [27]: 0.016
- glycan array binding signal (z-score) [28]: 0.835
- glycan array binding signal (z-score) [29]: -0.791
- glycan array binding signal (z-score) [30]: -0.082
- glycan array binding signal (z-score) [31]: -1.61
- glycan array binding signal (z-score) [32]: 2.31
- glycan array binding signal (z-score) [33]: 0.254
- glycan array binding signal (z-score) (Neu5Ac(a2-3)Gal(b1-4)Glc): 0.843
- glycan array binding signal (z-score) [34]: 0.351
- glycan array binding signal (z-score) [35]: -0.108
- glycan array binding signal (z-score) [36]: -1.52
- glycan array binding signal (z-score) [37]: -0.552
- glycan array binding signal (z-score) [38]: -0.12
- glycan array binding signal (z-score) [39]: -0.245
